Assay results reported in patent US20080241155A1 (Human Genome Sciences, published 2008).
Results are given in words; binding and its absence hold for the method and conditions named. In cells and extracts the contact can be indirect. Some entries that bind do so weakly or less than the wild type.

Molecular target: T1, Fas ligand (UniProt P48023 130-281, limits assumed)
T1 construct: Detected by immunoblotting with an antibody to FasL (Pharmingen)
T1 sequence (looked up): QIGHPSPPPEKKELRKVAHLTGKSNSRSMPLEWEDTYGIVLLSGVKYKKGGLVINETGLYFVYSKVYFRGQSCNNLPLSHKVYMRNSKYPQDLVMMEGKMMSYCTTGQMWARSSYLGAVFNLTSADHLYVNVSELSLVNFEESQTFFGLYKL
Test: receptor-Fc / ligand co-precipitation, immunoblot

binding: binds
B1: CD95-Fc (extracellular domain of CD-95 / Fas expressed as an Fc fusion) (Fc fusion, UniProt P25445 26-173, looked up)
chain: QVTDINSKGLELRKTVTTVETQNLEGLHHDGQFCHKPCPPGERKARDCTVNGDEPDCVPCQEGKEYTDKAHFSSKCRRCRLCDEGHGLEVEINCTRTQNTKCRCKPNFFCNSTVCEHCDPCTKCEHGIIKECTLTSNTKCKEEGSRSN
notes: extracellular domain; also called Fas-Fc; Fc-extracellular domain of Fas; not shown: Fc portion of human IgG
